In patent publication US20050271661A1, “Methods and reagents for the treatment of immunoinflammatory disorders” (priority 2004, published 2005):

Columns and labels:
NFAT = assay: NFAT-dependent transcription, NFAT luciferase reporter in CCRF-CEM cells activated with PI; type: cell-based; conditions: Homo sapiens, read-out: IC50, inhibition of PI-stimulated NFAT transcription
Source text: (§1) Reporter plasmids were transfected into CCRF-CEM cells using nucleofection (Nucleofector; AMAXA, Germany). Reporter plasmids expressing firefly luciferase (Luc) were purchased from Stratagene. pNFAT-Luc contains four NFAT binding sites; pGRE-Luc contains four GRE sites, and pAP1-Luc contains seven AP1 binding sites. The NFκB luciferase reporter, p(IL6κB)3-50hu.IL6-luc+, contains three NFκB sites and was a generous gift of Dr. De Bosscher (University of Ghent, Belgium). 10^7 cells suspended in 100 μL Amaxa ‘R’ Cell-line solution were transferred to a cuvette. One μL (1 μg/μL) of solution containing reporter plasmid (firefly luciferase) and control plasmid (pRL-TK-Renilla) (Renilla luciferase) (Promega) at a ratio of (10:1) were added to the cell suspension. […] After transfection the cells were suspended in 200 μL medium, allowed to recover for an hour, equal volume of medium containing 2× drugs were added and incubated at 37° C. for 30 min. Then the cells were stimulated with PI for another five hours. The luciferase activity of each of plasmid and control Renilla-plasmid were measured as per the procedure in Promega Luciferase assay kit.

NFκB [1] = assay: NFκB-dependent transcription, NFκB luciferase reporter in CCRF-CEM cells activated with PI; type: cell-based; conditions: Homo sapiens, at high concentration
Source text: as §1
NFκB-dependent transcription was measured by transient transfection of an NFκB reporter plasmid into CCRF-CEM cells and subsequent activation with PI.

AP1 = assay: AP1-dependent transcription, AP1 luciferase reporter in CCRF-CEM cells activated with PI; type: cell-based
Source text: as §1

NFκB [2] = assay: cells; conditions: Homo sapiens, CCRF-CEM, read-out: IC50, inhibition of NFκB translocation

IC50 (NFAT): 2 µM
IC50 (NFκB [1]): 20 µM
IC50 (AP1): 20 to 30 µM
IC50 (NFκB [2]): 20 µM
Structure (SMILES): Clc1ccc2c(c1)C(N1CCNCC1)=Nc1ccccc1O2 [amoxapine]
